Record: PubChem BioAssay AID720710 (VTT Finland, 2013)
This is an unselected part of about 1,380 reagents. 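One array per condition without replicates; hydroxyurea arrays received 2 mM for 16 h plus 3 h recovery.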 Reagents against one gene are numbered here. No sequences are given here.

Assay: 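Knock-downs that leave cyclin E-high cells sensitive to replication stress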 (primary screen)
Cell system: human U-2 OS bone cancer cells, parental and a cyclin E (CCNE1) overexpressing line
Reagents: single siRNA against human genes, 1 µM siRNA in the printed spot mix
Duration: 67 h
Conditions: half the arrays: hydroxyurea 2 mM for 16 h, then 3 h recovery; other arrays untreated
Detection: 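DNA synthesis measured as imaged EdU uptake per nucleus (DAPI) at 67 h, normalised to subgrid median and given as z-score versus non-targeting controls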
Reading the numbers: EdU z-score, cyclin E line, hydroxyurea and EdU z-score, parental, hydroxyurea and EdU z-score, cyclin E line, untreated and EdU z-score, parental, untreated: higher = more DNA synthesis than non-targeting controls

gene symbol	siRNA no.	EdU z-score, cyclin E line, hydroxyurea	EdU z-score, parental, hydroxyurea	EdU z-score, cyclin E line, untreated	EdU z-score, parental, untreated
ELN	1	-0.876	0.206	-1.82	-0.791
ELN	2	0.665	2.43	-1.12	0.333
NT5M	1	0.044	0.202	-0.641	-1.08
NT5M	2	2	2.8	0.272	-1.07
PPP1R15A	1	-0.0849	-2.25	-0.833	-0.79
PPP1R15A	2	0.1	1.12	-0.803	2.47
LOC651610	1	0.104	-0.765	-0.562	1
LOC651610	2	3.26	1.11	1.12	1.55

Records listed so far whose target name starts with E or e (2):
gene symbol	siRNA no.	EdU z-score, cyclin E line, hydroxyurea	EdU z-score, parental, hydroxyurea	EdU z-score, cyclin E line, untreated	EdU z-score, parental, untreated
ELN	1	-0.876	0.206	-1.82	-0.791
ELN	2	0.665	2.43	-1.12	0.333

The listing continues:
gene symbol	siRNA no.	EdU z-score, cyclin E line, hydroxyurea	EdU z-score, parental, hydroxyurea	EdU z-score, cyclin E line, untreated	EdU z-score, parental, untreated
PGBD3	1	-0.672	1.41	-1.39	-1.1
PGBD3	2	0.329	2.05	-1.03	0.0641
TP53	1	-1.97	-0.845	-0.329	0.22
TP53	2	-0.819	1.35	0.899	2.25
XPC	1	-2.43	-2.21	-1.41	0.318
XPC	2	-1.87	-0.513	-1.4	0.428
STAG3	1	-0.779	-1.97	-2.24	-1.08
STAG3	2	0.278	1.27	-0.984	-0.804
TENT4A	1	-0.543	2.8	-1.34	-0.664
TENT4A	2	-0.263	4.22	-1.12	-0.294
RNF8	1	-2.15	0.507	-0.792	-0.312
RNF8	2	-1.69	1.38	-0.396	1.28
HDAC3	1	0.225	0.598	-1.34	-2.54
HDAC3	2	1.76	3.57	-0.57	-0.0203
XPA	1	-0.654	1.09	-3.45	-0.571
XPA	2	-0.582	1.17	-2.56	1.34
